The source of these data is the supplement of paper PMC12067093, “Discovery and optimisation of a covalent ligand for TRIM25 and its application to targeted protein ubiquitination” (Chemical Science, 2025).

By UniProt entry, the sequences of proteins in these tests, tags left out. Where a name states a change or a piece, a line headed by the entry shows the natural chain unless it says otherwise.
UniProt Q96CS3: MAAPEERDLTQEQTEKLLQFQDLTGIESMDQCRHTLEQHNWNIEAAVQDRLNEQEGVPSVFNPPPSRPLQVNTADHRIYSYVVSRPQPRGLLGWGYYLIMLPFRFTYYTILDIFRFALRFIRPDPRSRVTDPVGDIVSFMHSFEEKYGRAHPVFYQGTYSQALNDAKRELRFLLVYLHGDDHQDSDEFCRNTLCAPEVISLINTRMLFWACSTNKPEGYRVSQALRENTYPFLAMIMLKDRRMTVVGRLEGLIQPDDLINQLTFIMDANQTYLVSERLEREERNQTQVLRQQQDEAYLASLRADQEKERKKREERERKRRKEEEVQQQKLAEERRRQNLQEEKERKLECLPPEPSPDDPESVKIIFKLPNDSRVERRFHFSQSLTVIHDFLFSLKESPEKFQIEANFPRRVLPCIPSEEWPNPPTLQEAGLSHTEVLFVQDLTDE
UniProt Q8TAG9: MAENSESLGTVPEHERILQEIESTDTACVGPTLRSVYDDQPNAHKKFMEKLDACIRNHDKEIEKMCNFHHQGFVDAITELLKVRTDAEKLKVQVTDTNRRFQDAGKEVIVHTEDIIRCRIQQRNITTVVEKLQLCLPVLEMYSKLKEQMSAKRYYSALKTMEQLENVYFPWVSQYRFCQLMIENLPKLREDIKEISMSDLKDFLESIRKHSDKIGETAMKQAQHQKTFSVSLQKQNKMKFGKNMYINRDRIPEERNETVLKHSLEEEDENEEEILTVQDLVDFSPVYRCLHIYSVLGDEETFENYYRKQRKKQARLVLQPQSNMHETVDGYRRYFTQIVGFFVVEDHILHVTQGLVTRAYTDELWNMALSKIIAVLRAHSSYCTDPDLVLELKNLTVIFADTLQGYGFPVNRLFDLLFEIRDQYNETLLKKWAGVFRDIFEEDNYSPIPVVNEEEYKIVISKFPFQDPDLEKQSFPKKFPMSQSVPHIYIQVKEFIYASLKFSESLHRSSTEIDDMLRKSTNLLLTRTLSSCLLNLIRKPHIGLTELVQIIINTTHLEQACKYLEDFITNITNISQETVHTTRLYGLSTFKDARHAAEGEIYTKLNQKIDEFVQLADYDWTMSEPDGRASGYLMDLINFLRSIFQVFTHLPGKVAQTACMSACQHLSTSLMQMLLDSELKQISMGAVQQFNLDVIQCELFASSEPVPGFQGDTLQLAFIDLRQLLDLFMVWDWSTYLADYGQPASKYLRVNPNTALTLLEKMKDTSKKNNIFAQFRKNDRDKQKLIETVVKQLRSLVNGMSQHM
UniProt Q5T8I3: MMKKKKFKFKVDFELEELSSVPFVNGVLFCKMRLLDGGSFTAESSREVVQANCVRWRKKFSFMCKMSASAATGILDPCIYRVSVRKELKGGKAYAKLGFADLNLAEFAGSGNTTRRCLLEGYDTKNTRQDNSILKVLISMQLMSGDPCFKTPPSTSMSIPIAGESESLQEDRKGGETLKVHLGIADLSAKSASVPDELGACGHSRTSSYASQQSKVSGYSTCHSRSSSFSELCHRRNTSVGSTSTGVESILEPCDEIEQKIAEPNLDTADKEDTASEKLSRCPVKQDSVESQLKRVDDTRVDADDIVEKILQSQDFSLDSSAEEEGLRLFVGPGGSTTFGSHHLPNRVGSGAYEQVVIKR
UniProt Q96EK7: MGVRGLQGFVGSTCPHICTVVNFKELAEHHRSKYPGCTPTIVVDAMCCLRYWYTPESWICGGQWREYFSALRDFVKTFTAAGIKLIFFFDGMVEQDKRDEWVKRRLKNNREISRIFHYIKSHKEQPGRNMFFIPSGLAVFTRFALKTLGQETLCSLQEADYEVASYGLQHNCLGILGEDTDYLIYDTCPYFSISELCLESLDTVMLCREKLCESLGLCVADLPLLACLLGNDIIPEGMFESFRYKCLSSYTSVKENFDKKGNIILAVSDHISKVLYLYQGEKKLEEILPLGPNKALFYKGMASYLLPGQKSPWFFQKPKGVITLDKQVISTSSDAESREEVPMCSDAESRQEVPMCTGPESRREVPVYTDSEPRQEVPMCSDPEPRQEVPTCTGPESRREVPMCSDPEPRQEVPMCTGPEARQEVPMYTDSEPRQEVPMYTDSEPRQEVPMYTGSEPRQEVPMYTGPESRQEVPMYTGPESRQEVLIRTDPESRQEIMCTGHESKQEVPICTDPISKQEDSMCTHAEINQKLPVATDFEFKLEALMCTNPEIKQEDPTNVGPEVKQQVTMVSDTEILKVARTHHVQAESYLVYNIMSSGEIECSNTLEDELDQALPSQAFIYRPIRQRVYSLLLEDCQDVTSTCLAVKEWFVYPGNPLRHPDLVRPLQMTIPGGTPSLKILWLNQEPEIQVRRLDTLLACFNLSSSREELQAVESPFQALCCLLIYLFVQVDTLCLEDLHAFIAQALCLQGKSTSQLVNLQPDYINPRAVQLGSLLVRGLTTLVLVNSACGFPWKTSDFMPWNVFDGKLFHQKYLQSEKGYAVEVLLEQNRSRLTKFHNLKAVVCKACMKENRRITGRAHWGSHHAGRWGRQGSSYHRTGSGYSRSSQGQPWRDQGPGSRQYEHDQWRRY
UniProt Q96B26, whole entry, looked up: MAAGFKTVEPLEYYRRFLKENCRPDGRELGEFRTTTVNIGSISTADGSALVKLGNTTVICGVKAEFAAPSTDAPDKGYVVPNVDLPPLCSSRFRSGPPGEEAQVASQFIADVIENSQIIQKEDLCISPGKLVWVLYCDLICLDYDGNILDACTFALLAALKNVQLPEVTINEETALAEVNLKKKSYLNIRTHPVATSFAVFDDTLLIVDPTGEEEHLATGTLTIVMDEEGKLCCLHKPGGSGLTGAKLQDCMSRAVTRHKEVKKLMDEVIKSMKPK
UniProt Q6P587: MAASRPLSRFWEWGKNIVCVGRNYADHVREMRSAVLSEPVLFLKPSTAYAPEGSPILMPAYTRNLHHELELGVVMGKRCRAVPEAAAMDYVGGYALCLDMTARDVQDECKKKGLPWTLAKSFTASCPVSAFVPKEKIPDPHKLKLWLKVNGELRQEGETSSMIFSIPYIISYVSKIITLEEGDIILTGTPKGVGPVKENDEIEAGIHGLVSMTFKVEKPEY
UniProt O95571: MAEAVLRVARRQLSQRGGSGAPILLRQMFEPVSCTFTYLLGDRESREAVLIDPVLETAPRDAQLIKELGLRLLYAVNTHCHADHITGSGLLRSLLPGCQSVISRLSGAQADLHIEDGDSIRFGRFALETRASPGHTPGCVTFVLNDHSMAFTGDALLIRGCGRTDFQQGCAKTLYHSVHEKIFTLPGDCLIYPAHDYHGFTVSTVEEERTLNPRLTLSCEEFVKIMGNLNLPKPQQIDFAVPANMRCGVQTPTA
UniProt Q13158: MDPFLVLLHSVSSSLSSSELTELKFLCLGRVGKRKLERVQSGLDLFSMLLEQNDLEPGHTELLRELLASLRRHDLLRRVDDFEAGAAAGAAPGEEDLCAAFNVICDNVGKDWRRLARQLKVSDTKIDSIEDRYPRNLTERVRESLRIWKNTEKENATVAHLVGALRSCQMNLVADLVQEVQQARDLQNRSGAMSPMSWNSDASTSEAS
UniProt P16930: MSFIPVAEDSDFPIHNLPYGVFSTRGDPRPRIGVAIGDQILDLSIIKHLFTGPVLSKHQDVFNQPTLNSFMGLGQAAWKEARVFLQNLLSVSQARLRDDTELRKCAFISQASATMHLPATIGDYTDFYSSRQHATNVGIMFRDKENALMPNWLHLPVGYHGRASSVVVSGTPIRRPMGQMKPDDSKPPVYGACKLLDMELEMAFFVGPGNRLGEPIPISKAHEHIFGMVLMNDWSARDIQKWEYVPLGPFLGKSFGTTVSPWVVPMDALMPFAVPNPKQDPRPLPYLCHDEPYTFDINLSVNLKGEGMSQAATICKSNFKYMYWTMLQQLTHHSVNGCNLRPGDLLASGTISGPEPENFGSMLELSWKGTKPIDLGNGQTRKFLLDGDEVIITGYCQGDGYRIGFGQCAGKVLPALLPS
UniProt Q6SJ93: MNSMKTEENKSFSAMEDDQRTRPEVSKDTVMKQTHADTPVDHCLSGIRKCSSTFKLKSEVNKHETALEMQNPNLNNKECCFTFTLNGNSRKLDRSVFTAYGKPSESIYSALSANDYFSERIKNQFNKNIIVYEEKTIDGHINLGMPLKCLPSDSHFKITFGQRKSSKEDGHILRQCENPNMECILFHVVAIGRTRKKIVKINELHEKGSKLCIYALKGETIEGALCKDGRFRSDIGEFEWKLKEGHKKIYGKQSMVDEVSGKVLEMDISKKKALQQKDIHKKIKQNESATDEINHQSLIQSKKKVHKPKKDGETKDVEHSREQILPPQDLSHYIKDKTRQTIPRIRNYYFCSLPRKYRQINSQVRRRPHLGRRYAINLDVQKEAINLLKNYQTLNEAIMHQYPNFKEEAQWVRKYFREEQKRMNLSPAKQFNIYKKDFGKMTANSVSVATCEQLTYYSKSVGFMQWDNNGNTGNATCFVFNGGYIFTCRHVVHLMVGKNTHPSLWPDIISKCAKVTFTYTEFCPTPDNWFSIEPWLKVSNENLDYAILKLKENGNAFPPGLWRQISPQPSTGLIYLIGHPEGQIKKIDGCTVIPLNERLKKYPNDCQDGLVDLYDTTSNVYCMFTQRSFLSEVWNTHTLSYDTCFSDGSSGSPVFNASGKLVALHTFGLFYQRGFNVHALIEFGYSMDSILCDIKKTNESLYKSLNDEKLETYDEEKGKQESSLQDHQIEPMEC
UniProt Q9Y3B2, whole entry, looked up: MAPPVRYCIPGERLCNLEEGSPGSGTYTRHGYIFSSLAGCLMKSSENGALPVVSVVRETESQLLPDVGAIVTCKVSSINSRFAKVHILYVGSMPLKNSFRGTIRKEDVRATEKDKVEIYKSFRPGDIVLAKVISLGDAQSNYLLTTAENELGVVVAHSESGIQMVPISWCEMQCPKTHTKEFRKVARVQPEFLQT
UniProt P19447: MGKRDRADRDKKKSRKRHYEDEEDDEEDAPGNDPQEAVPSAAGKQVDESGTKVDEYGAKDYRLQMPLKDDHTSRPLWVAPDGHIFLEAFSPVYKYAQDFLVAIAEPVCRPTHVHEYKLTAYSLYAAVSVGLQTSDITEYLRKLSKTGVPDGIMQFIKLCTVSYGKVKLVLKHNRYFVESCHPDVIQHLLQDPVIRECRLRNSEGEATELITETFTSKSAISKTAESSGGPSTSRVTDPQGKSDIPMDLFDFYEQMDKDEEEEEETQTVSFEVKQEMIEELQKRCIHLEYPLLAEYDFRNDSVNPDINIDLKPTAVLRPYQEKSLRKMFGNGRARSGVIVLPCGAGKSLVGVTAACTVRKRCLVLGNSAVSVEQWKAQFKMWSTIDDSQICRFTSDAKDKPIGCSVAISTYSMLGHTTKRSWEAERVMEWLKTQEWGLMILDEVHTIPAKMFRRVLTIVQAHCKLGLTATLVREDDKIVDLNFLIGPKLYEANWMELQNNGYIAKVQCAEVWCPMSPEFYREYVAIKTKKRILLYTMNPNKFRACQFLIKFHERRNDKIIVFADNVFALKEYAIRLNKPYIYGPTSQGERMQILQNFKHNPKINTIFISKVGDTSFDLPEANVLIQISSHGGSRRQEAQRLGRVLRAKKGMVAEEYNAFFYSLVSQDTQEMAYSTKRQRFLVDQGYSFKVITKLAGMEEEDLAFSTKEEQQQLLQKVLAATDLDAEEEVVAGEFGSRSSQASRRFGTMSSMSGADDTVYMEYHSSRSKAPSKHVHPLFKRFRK
UniProt Q15910, whole entry, looked up: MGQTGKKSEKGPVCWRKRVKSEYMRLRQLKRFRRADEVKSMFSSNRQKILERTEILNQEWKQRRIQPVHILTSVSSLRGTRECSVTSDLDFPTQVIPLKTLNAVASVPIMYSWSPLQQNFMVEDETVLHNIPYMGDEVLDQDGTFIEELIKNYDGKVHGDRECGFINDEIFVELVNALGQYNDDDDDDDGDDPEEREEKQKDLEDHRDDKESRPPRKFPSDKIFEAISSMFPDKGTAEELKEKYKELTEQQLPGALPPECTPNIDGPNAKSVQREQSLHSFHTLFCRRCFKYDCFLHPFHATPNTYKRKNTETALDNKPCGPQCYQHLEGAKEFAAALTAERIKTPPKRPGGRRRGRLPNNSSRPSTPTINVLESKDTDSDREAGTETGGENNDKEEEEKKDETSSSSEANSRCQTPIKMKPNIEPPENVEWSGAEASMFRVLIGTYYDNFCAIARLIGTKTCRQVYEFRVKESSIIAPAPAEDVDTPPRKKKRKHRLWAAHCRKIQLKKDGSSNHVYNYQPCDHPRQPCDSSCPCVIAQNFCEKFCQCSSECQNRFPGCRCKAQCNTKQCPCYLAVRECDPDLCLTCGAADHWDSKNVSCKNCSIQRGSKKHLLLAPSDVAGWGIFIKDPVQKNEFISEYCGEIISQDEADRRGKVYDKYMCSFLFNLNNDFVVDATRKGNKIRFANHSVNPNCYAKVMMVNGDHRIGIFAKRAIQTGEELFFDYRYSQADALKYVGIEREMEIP
UniProt Q9NPD3, whole entry: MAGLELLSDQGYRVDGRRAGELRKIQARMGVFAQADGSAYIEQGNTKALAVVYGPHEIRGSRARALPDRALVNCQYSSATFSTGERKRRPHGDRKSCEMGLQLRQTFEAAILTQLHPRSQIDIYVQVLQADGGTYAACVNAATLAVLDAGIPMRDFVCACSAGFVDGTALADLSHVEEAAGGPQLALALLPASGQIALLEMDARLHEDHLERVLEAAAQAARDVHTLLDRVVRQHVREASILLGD

Some of the results follow.
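Also: competitive chemoproteomic profiling in live THP-1 cells with an iodoacetamide desthiobiotin (IA-DTB) probe, comparing probe-labelled peptide intensities in compound-treated cells against DMSO-treated controls.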

Compound in the test: CC1Cc2ccccc2N1C(=O)C1CCCN(C1)C(=O)CCl (mixture of isomers) [TRIM25 ligand 11 (diastereomer mixture)]
Kind of test: probe-labelled cysteine peptide fold change vs DMSO (competition) (log2 fold change); higher = less target engagement (more negative = stronger competition). Particulars: 50 µM; THP-1; incubation time: 4 h.
As to “FAF2_Q96CS3_194_NTLCAPEVISLINTR (UniProt Q96CS3)”, the “probe-labelled cysteine peptide fold change” value is -0.0772. To “EXOC6_Q8TAG9_66_MCNFHHQGFVDAITELLK (UniProt Q8TAG9)” belongs -0.048; to “FAM102B_Q5T8I3_201_SASVPDELGACGHSR (UniProt Q5T8I3)”, -0.0565; to “FAM120B_Q96EK7_499_QEIMCTGHESK (UniProt Q96EK7)”, -0.218. As for “FAM120B_Q96EK7_511_QEVPICTDPISK (UniProt Q96EK7)”, the “probe-labelled cysteine peptide fold change” value was -0.0572. For the target “ERMP1_Q7Z2K6_737_AHCEENAPLCGFPWYLPVHFLIR (UniProt Q7Z2K6)”, the “probe-labelled cysteine peptide fold change” value was 0.0032. “EXOC7_Q9UPT5-2_285_RPGRDDMLDVETDAYIHCVSAFVK (UniProt Q9UPT5)”: the “probe-labelled cysteine peptide fold change” value was 0.0261. Consider “EXOSC6_Q5RKV6_248_LGLEGCQR (UniProt Q5RKV6)”, for which the “probe-labelled cysteine peptide fold change” value turned out to be 0.0459. As to “EXOSC8_Q96B26_234_LCCLHKPGGSGLTGAK (UniProt Q96B26)”, the “probe-labelled cysteine peptide fold change” value is -0.157.

For “ETFDH_Q16134_387_LTFPGGLLIGCSPGFMNVPK (UniProt Q16134)”, the “probe-labelled cysteine peptide fold change” value is -0.698. Regarding “ERI1_Q8IV48_294_LGMDYDGRPHCGLDDSK (UniProt Q8IV48)”, the “probe-labelled cysteine peptide fold change” value is -0.0637. The same measure for “FAHD1_Q6P587_112_DVQDECK (UniProt Q6P587)”: -0.0525; for “ERMP1_Q7Z2K6_222_DGAQHAVLANCHFDSVANSPGASDDAVSCSVMLEVLR (UniProt Q7Z2K6)”: 0.318; for “ETHE1_O95571_34_QMFEPVSCTFTYLLGDRESR (UniProt O95571)”: -0.214. As for “FADD_Q13158_168_SCQMNLVADLVQEVQQAR (UniProt Q13158)”, the “probe-labelled cysteine peptide fold change” value was -0.425. To “FAH_P16930_105_CAFISQASATMHLPATIGDYTDFYSSR (UniProt P16930)” belongs -0.0821; to “EXOSC2_Q13868_191_THFHDLPCGASVILGNNGFIWIYPTPEHKEEEAGGFIANLEPVSLADR (UniProt Q13868)”, 0.0376; to “FAM111A_Q96PZ2_181_ASTECVK (UniProt Q96PZ2)”, -0.00255. Consider “ERGIC3_Q9Y282_145_HELGKVEVTVFDPDSLDPDRCESCYGAEAEDIK (UniProt Q9Y282)”, for which the “probe-labelled cysteine peptide fold change” value stood at 0.0788.

Regarding “FAM118B_Q9BPY3_126_DCLYEVFDDLESK (UniProt Q9BPY3)”, the “probe-labelled cysteine peptide fold change” value is -0.251. The same measure for “FAM111B_Q6SJ93_351_NYYFCSLPR (UniProt Q6SJ93)”: 0.026; for “ETF1_P62495_335_YVLHCQGTEEEK (UniProt P62495)”: 0.139; for “ERLIN2_O94905_128_IHHELNQFCSVHTLQEVYIELFDQIDENLK (UniProt O94905)”: -0.0608. Turning to “FAM120B_Q96EK7_356_QEVPMCTGPESR (UniProt Q96EK7)”, the “probe-labelled cysteine peptide fold change” value is -0.365.

Consider “EXOSC1_Q9Y3B2_15_LCNLEEGSPGSGTYTR (UniProt Q9Y3B2)”, for which the “probe-labelled cysteine peptide fold change” value was 0.121.

As to “F2_P00734_564_RGDACEGDSGGPFVMK (UniProt P00734)”, the “probe-labelled cysteine peptide fold change” value is 0.325. Turning to “FAM120B_Q96EK7_523_QEDSMCTHAEINQK (UniProt Q96EK7)”, the “probe-labelled cysteine peptide fold change” value is -0.387.

As to “ERCC3_P19447_284_CIHLEYPLLAEYDFR (UniProt P19447)”, the “probe-labelled cysteine peptide fold change” value was 0.08. The same measure for “EZH2_Q15910_260_ELTEQQLPGALPPECTPNIDGPNAK (UniProt Q15910)”: -0.25. For the target “EXOC6_Q8TAG9_135_LQLCLPVLEMYSK (UniProt Q8TAG9)”, the “probe-labelled cysteine peptide fold change” value worked out at 0.103. The same measure for “ERCC6L_Q2NKX8_411_LCDHPR (UniProt Q2NKX8)”: 0.0844; for “ERGIC3_Q9Y282_182_NPDTIEQCR (UniProt Q9Y282)”: -0.0457; for “EXOSC4_Q9NPD3_97_SCEMGLQLR (UniProt Q9NPD3)”: -0.0307. With “FAM120B_Q96EK7_416_QEVPMCTGPEAR (UniProt Q96EK7)”, the “probe-labelled cysteine peptide fold change” value was -0.163.

Turning to “EXOC3_O60645_161_KLMDLECSR (UniProt O60645)”, the “probe-labelled cysteine peptide fold change” value is -0.116. As to “ESCO1_Q5FWF5_376_CILNGINSSAK (UniProt Q5FWF5)”, the “probe-labelled cysteine peptide fold change” value is -0.215. Regarding “EXOC1_Q9NV70_837_HLCEEENLLQVVWHSMQDEFIR (UniProt Q9NV70)”, the “probe-labelled cysteine peptide fold change” value is -0.0301. On to “EXOSC8_Q96B26_251_LQDCMSR (UniProt Q96B26)”, for which the “probe-labelled cysteine peptide fold change” value is -0.0527.

In the case of “EXOSC10_Q01780_288_PQPQLYRPIEETPCHFISSLDELVELNEK (UniProt Q01780)”, the “probe-labelled cysteine peptide fold change” value is 0.148.
